{
  "sequences": {"note": "By UniProt entry, the sequences of proteins in these tests, tags left out.", "UniProt O60016": "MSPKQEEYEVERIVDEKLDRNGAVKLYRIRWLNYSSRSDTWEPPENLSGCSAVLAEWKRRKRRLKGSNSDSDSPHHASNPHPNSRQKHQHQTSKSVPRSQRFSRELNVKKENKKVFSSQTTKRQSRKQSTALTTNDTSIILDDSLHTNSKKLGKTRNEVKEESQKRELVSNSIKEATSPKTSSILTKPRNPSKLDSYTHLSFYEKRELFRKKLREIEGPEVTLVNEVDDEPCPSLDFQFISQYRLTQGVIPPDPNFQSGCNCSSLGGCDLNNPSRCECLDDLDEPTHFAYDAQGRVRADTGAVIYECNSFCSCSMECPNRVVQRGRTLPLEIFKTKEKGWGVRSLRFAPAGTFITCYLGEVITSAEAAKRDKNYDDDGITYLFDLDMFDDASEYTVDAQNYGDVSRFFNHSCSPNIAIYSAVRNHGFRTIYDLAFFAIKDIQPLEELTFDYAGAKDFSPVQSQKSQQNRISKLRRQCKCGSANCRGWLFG"},
  "source": "paper doi:10.1101/2020.10.21.349183",
  "binders": {"B1": {"name": "MBP-tagged Polα (enzyme, UniProt P28040 1-1405)", "chain": "MRKRNAGIKPSQRFAELRALRQAGKTRASTYESKENEELYDNVSEEEYRKIVRQRLDEDDFVVDDNGAGYVDNGYDEWDQSHYSDEDDENEKGSSGRKRKKSKNVLAEPNQQIGAFFKANAIQPASRIANRKNNEKEDEFMAEILGSIDQDIPERLSTKKGNRSHTTSNAKRRSQKAASSISTTNVVSSDPKKYIPETVPSTPQPASSLPIPSSPPAALETEENVDSQPMELDEPELPVGSDAPIIDVEESIAMKPLMSHDQVDDTASLSKATISQQPLSPMTPLSSELDVSAFSEINSKIKNVDVPASSYSSPISKVSPSDVTEEDGSLFFFWMDYTEMYGSLCLFGKVYDKATKQYVSCFLKVDGIMRSLYFLPRPSSSSVSEDSIAAQTKDVYDEVANLLSKRGVKEWKSRVSKYKYAFELEDVPRTADYLEVIYSYSYPALPTDLTGSSFSHVFGTNTALFEQFVLSRRVMGPCWLKIQQPNFDAVKNASWCRVEIGCSSPQNISVSFEKNEITSKTPPMTVMSLAFRTLINKEQNKQEVVMISARIFENVDIEKGLPANDMPSYSFSLIRPLKQIFPNGFEKLARQHKSSIFCERSEVSLLNNFLNKVRTYDPDVYFGHDFEMCYSVLLSRLKERKIHNWSSIGRLRRSEWPRSFNRSSQQFVEKQIIAGRLMCDLSNDFGRSMIKAQSWSLSEIVLKELDIKRQDINQEKALQSWTDTAHGLLDYLVHCEIDTFFIAAVAFKIQMLQLSKNLTNIAGNSWARTLTGTRAERNEYILLHEFKKNGYIVPDKQQSIRRHAEAFGAEDGLQEESLGKKKDKYKGGLVFEPQKGLYETCILVMDFNSLYPSIIQEYNICFTTVDRSPSNSDSDDQIPDTPSASANQGIFPRLIANLVERRRQIKGLLKDNSATPTQRLQWDIQQQALKLTANSMYGCLGYTKSRFYARPLAVLITYKGREALMNTKELADQMGLQVIYGDTDSVMLNTNVTDKNHALRIGNEFKEKVNERYSKLEIDIDNVYQRMLLHAKKKYAALQLDSQGKPNLDVKGLDMKRREFCTLAKEASKFCLDQILSGELTETVIENIHSYLMDFSEKMRNGKFPANKFIIFNRLGKNPEDYPNGKTMPFVQVALKKKARGENVRVGDVIPFIIAGSDADGHPADRAYSPQEIMNTNSTLVIDYNYYLSHQILPPIERVIAPIEGTNRARLAECLGLDARKYYSHETSESSAFQRYESTLTDDQCFINVSPLLLKCPSCNATSFSLRSVKSLKETLYANTVECDCGYEYSDFTIILQFSSQLRDFINLYYEGILVCDDSSCGNRTRQMSVYGKRCCNKSCRGSVHFEYNDEQLYNQIKFLLKAVQTTTGATRNGIIRCNAINKNISRIMNKNAREFVDMGLIFSS"}, "B2": {"name": "Polα (two-hybrid fusion) (enzyme, UniProt P28040 1-1405)", "chain": "MRKRNAGIKPSQRFAELRALRQAGKTRASTYESKENEELYDNVSEEEYRKIVRQRLDEDDFVVDDNGAGYVDNGYDEWDQSHYSDEDDENEKGSSGRKRKKSKNVLAEPNQQIGAFFKANAIQPASRIANRKNNEKEDEFMAEILGSIDQDIPERLSTKKGNRSHTTSNAKRRSQKAASSISTTNVVSSDPKKYIPETVPSTPQPASSLPIPSSPPAALETEENVDSQPMELDEPELPVGSDAPIIDVEESIAMKPLMSHDQVDDTASLSKATISQQPLSPMTPLSSELDVSAFSEINSKIKNVDVPASSYSSPISKVSPSDVTEEDGSLFFFWMDYTEMYGSLCLFGKVYDKATKQYVSCFLKVDGIMRSLYFLPRPSSSSVSEDSIAAQTKDVYDEVANLLSKRGVKEWKSRVSKYKYAFELEDVPRTADYLEVIYSYSYPALPTDLTGSSFSHVFGTNTALFEQFVLSRRVMGPCWLKIQQPNFDAVKNASWCRVEIGCSSPQNISVSFEKNEITSKTPPMTVMSLAFRTLINKEQNKQEVVMISARIFENVDIEKGLPANDMPSYSFSLIRPLKQIFPNGFEKLARQHKSSIFCERSEVSLLNNFLNKVRTYDPDVYFGHDFEMCYSVLLSRLKERKIHNWSSIGRLRRSEWPRSFNRSSQQFVEKQIIAGRLMCDLSNDFGRSMIKAQSWSLSEIVLKELDIKRQDINQEKALQSWTDTAHGLLDYLVHCEIDTFFIAAVAFKIQMLQLSKNLTNIAGNSWARTLTGTRAERNEYILLHEFKKNGYIVPDKQQSIRRHAEAFGAEDGLQEESLGKKKDKYKGGLVFEPQKGLYETCILVMDFNSLYPSIIQEYNICFTTVDRSPSNSDSDDQIPDTPSASANQGIFPRLIANLVERRRQIKGLLKDNSATPTQRLQWDIQQQALKLTANSMYGCLGYTKSRFYARPLAVLITYKGREALMNTKELADQMGLQVIYGDTDSVMLNTNVTDKNHALRIGNEFKEKVNERYSKLEIDIDNVYQRMLLHAKKKYAALQLDSQGKPNLDVKGLDMKRREFCTLAKEASKFCLDQILSGELTETVIENIHSYLMDFSEKMRNGKFPANKFIIFNRLGKNPEDYPNGKTMPFVQVALKKKARGENVRVGDVIPFIIAGSDADGHPADRAYSPQEIMNTNSTLVIDYNYYLSHQILPPIERVIAPIEGTNRARLAECLGLDARKYYSHETSESSAFQRYESTLTDDQCFINVSPLLLKCPSCNATSFSLRSVKSLKETLYANTVECDCGYEYSDFTIILQFSSQLRDFINLYYEGILVCDDSSCGNRTRQMSVYGKRCCNKSCRGSVHFEYNDEQLYNQIKFLLKAVQTTTGATRNGIIRCNAINKNISRIMNKNAREFVDMGLIFSS"}, "B3": {"name": "Swi6/HP1 (protein, UniProt P40381 1-328)", "chain": "MKKGGVRSYRRSSTSKRSVIDDDSEPELPSMTKEAIASHKADSGSSDNEVESDHESKSSSKKLKENAKEEEGGEEEEEDEYVVEKVLKHRMARKGGGYEYLLKWEGYDDPSDNTWSSEADCSGCKQLIEAYWNEHGGRPEPSKRKRTARPKKPEAKEPSPKSRKTDEDKHDKDSNEKIEDVNEKTIKFADKSQEEFNENGPPSGQPNGHIESDNESKSPSQKESNESEDIQIAETPSNVTPKKKPSPEVPKLPDNRELTVKQVENYDSWEDLVSSIDTIERKDDGTLEIYLTWKNGAISHHPSTITNKKCPQKMLQFYESHLTFRENE"}},
  "key": {"[1]": {"target": "GST-tagged Clr4 (S. pombe) (UniProt O60016)", "assay": "pull-down"}, "[2]": {"target": "Clr4 (two-hybrid fusion) (S. pombe) (UniProt O60016)", "assay": "two-hybrid"}, "[3]": {"target": "T1, myc-tagged Polδ (S. pombe) (UniProt P30316)", "T1 sequence": "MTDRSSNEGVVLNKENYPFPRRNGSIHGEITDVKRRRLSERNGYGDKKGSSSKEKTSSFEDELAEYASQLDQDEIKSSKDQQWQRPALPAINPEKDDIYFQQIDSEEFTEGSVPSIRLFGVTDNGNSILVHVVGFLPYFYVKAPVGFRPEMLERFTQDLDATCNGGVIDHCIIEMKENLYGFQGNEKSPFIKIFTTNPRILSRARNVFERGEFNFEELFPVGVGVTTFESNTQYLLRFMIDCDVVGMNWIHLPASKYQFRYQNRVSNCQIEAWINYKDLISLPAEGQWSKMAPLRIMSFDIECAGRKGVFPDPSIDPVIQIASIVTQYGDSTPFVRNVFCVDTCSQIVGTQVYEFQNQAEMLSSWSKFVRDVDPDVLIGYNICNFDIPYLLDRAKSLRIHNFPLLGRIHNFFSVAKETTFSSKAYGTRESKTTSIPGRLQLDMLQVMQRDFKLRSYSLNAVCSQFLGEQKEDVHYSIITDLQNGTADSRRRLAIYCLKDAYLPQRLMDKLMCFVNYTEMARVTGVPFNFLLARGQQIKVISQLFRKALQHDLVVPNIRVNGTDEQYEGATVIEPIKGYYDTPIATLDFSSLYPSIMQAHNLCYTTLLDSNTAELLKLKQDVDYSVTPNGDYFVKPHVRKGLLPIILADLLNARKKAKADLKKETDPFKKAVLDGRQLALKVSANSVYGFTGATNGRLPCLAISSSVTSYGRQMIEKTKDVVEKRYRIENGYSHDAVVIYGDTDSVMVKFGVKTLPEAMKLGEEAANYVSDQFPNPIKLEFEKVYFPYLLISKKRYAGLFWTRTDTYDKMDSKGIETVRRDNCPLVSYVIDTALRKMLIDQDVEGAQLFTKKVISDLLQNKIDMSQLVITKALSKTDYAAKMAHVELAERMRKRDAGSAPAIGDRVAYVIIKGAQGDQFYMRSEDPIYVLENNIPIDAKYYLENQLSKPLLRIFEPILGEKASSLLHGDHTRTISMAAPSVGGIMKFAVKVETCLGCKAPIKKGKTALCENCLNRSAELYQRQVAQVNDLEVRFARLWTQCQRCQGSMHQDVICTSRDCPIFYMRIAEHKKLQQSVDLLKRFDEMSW", "assay": "co-IP"}},
  "note": "No constants are given. Whether binding was seen depends on the method and setting. For part of these data: In cells and extracts the contact can be indirect. Some entries that bind do so weakly or less than the wild type. Where a sequence is shown, tags or fusion partners need not be part of it.",
  "data": [
    {"binder": "B1", "values": [
      {"measurement": "binding", "setting": "[1]", "value": "binds"}
    ]},
    {"binder": "B2", "values": [
      {"measurement": "binding", "setting": "[2]", "value": "binds"}
    ]},
    {"binder": "B3", "values": [
      {"measurement": "binding", "setting": "[3]", "value": "binds"}
    ]}
  ]
}
